Data as given in PubChem BioAssay AID686943 (Drosophila RNAi Screening Center, 2013)
The deposit covers about 23,000 reagents; below is an unselected part of those with a known target gene and a result. 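Extra replicates exist only for a retested subset of genes; insulin dose and duration not given; both raised and lowered dpERK matter.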 Names joined by + are all predicted targets of the reagent. Further read-outs or replicates are left out here. Not stated in the record: the amount of reagent, the time to read-out.

Assay: 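Knockdowns that increase or decrease active ERK after insulin receptor stimulation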 (primary screen)
System: Drosophila S2R+ haemocyte-like cells expressing YFP-tagged ERK (Rolled)
Reagent: long dsRNA against Drosophila genes
Conditions: insulin stimulation versus unstimulated cells; dose and duration not given
Measurement: 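Per-plate z-scores of phospho-ERK immunostaining normalised to YFP-tagged ERK, measured with and without insulin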
Reading the numbers: replicate 1, z-score of dpERK with insulin: higher = more active ERK per ERK-YFP after insulin

Gene,PubChem SID,"replicate 1, z-score of dpERK with insulin"
CG14107,SID104189902,1.76
TfIIB,SID104183246,2.28
GstD1,SID104196475,1.16
CG13482,SID104189816,0.31
Cyfip,SID104195471,-0.26
CG4892,SID104181729,-0.57
CG10920,SID104197557,0.07
wun2,SID104187358,0.31
CG10845,SID104194064,-0.41
ymp,SID104193512,-0.02
ymp,SID104194274,-0.68
jub,SID104199159,-0.7
CG3457,SID104198301,0.36
Pka-R1,SID104191466,-4.09
Pka-R1,SID104191667,1.19
CG16800,SID104182310,0.28
qkr58E-3,SID104184503,0.12
SelR,SID104195863,-0.49
GstZ1,SID104196270,0.67
Upf1,SID104199459,-2.27
vlc,SID104184714,-0.2
CG13484,SID104189818,-0.76
Vps13D,SID104189610,-0.35
Vps13D,SID104189611,0.18
Mnr,SID104200341,0.24
Mnr,SID104200342,1.54
Mnr,SID104201912,0.58
Cpr62Bb,SID104188196,0.08
Ugt50B3,SID104184570,0.26
Ugt50B3,SID104184571,1.33
Ugt50B3,SID104201172,-0.59
CG31300,SID104194449,0.49
Grx3,SID104182758,-0.51
bard,SID104194588,0.3
CG12991,SID104199303,0.49
CG13625,SID104194419,0.39
CG11920,SID104194231,0.01
Obp56d,SID104185856,-0.36
Nepl3,SID104182473,0
CG31104,SID104194450,0.24
CG34253 + lncRNA:CR32194,SID104189323,-0.22
CG31960,SID104180073,-0.44
nullo,SID104198599,0.58
Dhc16F,SID104200034,0.99
Cpr49Ag,SID104186995,0.95
Aatf,SID104181923,-0.22
fiz,SID104199980,1.43
Irk1,SID104194478,0.21
Irk1,SID104195898,-1.11
Or71a,SID104191036,0.06
CG4558,SID104198161,-0.37
Phb1,SID104183355,-0.57
CG15599,SID104199460,-0.64
5-HT1B,SID104184823,1.31
5-HT1B,SID104185561,-4.94
CG7907,SID104196131,0.8
Rpn1,SID104191066,-1.89

Sorted by “replicate 1, z-score of dpERK with insulin” (high to low): some entries from above
Gene,PubChem SID,"replicate 1, z-score of dpERK with insulin"
Dhc16F,SID104200034,0.99
nullo,SID104198599,0.58
CG34253 + lncRNA:CR32194,SID104189323,-0.22
CG31960,SID104180073,-0.44
